Results are given in words; binding and its absence hold for the method and conditions named. Binding seen in cells or lysates may run through a third protein. Binding calls can cover weak binding; strength is not graded here. Where a sequence is shown, tags or fusion partners need not be part of it.
How the values were obtained:
[1] = target: T1, YFP-fused DUSP8 (mouse) (UniProt O09112); experiment: FRET or BRET; FRET in HEK293T cells transfected with CFP-fused Pur-α and YFP-fused DUSP8; detects interaction < 10 nm
T1 sequence: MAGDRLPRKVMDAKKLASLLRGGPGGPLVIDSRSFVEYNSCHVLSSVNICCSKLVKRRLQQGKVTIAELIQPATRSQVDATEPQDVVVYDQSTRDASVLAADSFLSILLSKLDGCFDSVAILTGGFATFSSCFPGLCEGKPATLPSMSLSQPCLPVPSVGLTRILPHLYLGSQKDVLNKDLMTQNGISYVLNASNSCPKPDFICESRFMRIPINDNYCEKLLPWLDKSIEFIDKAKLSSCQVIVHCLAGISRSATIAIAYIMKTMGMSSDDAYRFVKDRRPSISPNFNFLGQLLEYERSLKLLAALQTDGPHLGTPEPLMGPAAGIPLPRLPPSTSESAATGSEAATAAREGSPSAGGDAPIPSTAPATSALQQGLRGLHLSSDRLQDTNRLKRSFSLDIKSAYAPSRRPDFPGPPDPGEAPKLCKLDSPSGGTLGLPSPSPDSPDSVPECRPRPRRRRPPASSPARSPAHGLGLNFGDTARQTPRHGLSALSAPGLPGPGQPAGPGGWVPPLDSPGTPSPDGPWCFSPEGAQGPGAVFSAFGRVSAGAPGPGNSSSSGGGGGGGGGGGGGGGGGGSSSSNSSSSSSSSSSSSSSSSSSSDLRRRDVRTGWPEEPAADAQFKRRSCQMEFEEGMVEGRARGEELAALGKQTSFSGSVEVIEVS

[2] = target: T2, Myc-tagged mouse DUSP8 (mouse) (UniProt O09112); experiment: co-IP; Myc-tagged DUSP8 with Flag-tagged Pur-α in lysates of HEK293T transfectants
T2 sequence: T1 sequence

With CFP-fused Pur-α (human) the binding [1] was “binds”.

In the case of 3xFlag-tagged human Pur-α, the binding [2] was “binds”.

Reference: article PMC10617771
